Source: publication PMC10093038

Chains of the proteins cited; added tags and fusions are not shown.
UniProt Q9Y2R2: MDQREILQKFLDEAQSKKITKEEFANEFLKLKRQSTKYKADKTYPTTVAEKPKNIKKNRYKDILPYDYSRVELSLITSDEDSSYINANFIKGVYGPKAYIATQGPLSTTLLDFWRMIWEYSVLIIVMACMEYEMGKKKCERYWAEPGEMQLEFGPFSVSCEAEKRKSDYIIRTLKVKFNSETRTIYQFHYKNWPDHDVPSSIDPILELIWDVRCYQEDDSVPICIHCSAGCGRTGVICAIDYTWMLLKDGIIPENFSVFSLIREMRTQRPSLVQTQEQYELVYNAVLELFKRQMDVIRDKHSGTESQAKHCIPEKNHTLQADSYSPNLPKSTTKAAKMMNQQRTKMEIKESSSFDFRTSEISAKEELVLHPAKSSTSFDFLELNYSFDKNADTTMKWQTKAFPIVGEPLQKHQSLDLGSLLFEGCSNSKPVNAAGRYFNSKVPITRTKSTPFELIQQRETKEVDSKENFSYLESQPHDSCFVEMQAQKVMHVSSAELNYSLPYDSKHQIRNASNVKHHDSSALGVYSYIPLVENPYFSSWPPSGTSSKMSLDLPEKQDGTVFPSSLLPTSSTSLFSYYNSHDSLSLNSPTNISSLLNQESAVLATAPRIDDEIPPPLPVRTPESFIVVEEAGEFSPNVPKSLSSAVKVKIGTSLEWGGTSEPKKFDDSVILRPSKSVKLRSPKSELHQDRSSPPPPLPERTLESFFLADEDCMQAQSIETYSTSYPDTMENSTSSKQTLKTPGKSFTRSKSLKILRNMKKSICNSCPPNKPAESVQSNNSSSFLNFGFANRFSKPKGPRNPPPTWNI

Biological target: T1, THY1 (CD90), exogenous, stably expressed in NPC cells (human) (UniProt P04216)
T1 sequence: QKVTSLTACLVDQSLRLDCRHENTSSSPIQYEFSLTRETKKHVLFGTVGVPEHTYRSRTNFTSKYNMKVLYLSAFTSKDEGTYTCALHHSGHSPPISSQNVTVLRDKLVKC
Assay: affinity purification with mass spectrometry; immunoprecipitates resolved by SDS-PAGE, Coomassie-stained bands excised, in-gel trypsin digestion, LTQ Velos, MASCOT search; cell lines only indicated in the figure

binding	Substance
binds	protein tyrosine phosphatase nonreceptor type 22 (PTPN22) (from UniProt Q9Y2R2 1-807) (enzyme)
binds	platelet-derived growth factor receptor β (PDGF-Rβ) (from UniProt P09619 33-1106)

Results are given in words; binding and its absence hold for the method and conditions named. Binding seen in cells or lysates may run through a third protein. These calls come from enrichment with a bait or labelling near it, and not all partners need be listed.
